# The inconclusive results got no clear call from the source; some entries with a clear call stand among them for comparison. For some of these results: A potency beside an inconclusive call is a rough fit, not a confirmed value. The source made the active and inactive calls. How the source made its calls: active means hit-call score of the fitted dose curve at least 0.9, where 1 is the maximum; inconclusive means response in the unintended direction; inactive means score below 0.9.
# By UniProt entry, the sequences of proteins in these tests, tags left out. Where a name states a change or a piece, a line headed by the entry shows the natural chain unless it says otherwise.
# UniProt P60484: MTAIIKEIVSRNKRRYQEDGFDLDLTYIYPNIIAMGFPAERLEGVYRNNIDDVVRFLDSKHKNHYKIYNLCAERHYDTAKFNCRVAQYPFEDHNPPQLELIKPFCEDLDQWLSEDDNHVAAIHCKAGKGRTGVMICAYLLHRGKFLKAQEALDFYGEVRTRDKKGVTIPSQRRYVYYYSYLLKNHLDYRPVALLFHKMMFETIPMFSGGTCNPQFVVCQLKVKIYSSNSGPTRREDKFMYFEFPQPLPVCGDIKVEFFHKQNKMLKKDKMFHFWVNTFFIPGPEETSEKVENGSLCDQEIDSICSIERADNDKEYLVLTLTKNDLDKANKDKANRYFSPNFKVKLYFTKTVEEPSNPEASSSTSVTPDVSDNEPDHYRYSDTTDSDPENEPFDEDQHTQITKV
# UniProt P10275: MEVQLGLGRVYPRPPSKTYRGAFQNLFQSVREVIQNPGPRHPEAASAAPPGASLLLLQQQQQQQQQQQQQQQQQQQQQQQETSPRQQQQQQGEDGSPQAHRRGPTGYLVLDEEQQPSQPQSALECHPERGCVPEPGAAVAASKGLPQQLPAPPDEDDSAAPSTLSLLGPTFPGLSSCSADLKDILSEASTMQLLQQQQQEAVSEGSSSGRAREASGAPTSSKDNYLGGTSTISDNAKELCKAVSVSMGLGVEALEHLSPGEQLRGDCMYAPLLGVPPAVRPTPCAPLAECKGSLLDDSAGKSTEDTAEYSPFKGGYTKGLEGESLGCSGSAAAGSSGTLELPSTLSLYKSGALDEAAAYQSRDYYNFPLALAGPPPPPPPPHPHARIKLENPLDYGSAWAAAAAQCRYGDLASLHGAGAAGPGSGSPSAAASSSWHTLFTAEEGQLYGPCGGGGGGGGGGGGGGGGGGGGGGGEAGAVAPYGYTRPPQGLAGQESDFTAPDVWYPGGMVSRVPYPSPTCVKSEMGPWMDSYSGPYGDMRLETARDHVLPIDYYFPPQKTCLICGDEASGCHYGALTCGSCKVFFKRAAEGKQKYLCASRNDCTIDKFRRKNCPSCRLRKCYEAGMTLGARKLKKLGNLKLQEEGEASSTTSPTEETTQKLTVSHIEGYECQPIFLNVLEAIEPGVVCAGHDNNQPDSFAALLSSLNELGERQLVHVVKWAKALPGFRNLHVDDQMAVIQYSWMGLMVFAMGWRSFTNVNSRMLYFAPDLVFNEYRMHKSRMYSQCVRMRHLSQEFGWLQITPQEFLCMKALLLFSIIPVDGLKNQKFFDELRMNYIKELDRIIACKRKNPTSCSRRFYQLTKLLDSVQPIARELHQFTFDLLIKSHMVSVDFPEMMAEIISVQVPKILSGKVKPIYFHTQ
# UniProt P19785, whole entry, looked up: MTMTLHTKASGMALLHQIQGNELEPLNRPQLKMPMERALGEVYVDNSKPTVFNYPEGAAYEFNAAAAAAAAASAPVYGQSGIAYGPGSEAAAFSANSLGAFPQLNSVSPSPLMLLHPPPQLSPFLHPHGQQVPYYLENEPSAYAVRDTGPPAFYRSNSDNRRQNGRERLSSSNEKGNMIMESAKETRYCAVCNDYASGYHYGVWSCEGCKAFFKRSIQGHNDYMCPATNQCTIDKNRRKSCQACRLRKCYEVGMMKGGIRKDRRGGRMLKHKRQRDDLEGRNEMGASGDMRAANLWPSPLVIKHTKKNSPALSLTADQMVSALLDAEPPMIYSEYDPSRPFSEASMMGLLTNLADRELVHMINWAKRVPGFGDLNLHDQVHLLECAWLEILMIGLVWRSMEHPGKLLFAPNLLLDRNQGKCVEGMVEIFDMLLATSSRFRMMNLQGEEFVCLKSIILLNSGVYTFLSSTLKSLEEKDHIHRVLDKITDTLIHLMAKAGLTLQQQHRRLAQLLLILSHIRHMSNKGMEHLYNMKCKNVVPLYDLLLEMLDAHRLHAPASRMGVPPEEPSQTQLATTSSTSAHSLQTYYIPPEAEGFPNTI
# UniProt Q96RI1: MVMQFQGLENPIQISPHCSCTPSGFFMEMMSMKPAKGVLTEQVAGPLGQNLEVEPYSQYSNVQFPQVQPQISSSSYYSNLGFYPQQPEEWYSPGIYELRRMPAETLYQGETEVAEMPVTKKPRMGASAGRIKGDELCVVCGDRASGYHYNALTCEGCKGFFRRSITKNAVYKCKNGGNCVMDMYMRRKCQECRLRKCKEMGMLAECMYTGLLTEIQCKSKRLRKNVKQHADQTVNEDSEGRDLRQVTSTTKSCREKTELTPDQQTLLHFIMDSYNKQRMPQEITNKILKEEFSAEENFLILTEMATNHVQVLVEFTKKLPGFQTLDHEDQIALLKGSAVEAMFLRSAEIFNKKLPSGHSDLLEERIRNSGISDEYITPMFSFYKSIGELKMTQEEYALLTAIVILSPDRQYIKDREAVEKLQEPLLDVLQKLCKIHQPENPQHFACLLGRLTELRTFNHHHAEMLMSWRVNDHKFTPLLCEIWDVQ
# UniProt P03372, whole entry, looked up: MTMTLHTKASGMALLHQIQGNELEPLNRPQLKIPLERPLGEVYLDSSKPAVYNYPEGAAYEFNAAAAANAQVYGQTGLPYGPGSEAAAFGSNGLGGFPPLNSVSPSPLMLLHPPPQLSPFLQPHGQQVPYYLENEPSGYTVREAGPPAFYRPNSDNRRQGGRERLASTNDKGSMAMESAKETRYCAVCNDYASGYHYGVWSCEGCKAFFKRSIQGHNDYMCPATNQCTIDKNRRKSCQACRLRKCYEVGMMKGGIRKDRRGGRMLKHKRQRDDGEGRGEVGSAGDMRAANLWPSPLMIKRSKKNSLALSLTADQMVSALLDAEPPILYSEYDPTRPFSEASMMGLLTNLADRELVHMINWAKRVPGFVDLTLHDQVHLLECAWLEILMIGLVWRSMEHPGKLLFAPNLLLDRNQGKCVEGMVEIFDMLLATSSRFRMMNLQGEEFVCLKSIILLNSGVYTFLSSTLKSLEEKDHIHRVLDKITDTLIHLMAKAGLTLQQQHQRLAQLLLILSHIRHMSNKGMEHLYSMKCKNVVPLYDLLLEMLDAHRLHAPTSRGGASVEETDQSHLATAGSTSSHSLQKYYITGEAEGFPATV
# UniProt Q92731, whole entry, looked up: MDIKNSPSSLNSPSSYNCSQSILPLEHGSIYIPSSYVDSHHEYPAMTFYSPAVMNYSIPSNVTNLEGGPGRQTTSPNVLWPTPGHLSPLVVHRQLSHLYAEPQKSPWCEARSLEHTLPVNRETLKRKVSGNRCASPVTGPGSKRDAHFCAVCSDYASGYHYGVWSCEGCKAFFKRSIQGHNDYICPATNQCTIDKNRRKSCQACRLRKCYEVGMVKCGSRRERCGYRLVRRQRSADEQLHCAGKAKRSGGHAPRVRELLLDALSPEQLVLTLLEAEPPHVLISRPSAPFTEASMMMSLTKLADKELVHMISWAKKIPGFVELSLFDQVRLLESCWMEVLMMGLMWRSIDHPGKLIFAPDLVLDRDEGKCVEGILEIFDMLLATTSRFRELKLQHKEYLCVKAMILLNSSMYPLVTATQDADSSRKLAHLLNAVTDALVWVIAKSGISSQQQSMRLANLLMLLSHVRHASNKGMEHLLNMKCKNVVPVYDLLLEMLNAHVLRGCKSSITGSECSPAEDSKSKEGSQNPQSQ
# UniProt P04406: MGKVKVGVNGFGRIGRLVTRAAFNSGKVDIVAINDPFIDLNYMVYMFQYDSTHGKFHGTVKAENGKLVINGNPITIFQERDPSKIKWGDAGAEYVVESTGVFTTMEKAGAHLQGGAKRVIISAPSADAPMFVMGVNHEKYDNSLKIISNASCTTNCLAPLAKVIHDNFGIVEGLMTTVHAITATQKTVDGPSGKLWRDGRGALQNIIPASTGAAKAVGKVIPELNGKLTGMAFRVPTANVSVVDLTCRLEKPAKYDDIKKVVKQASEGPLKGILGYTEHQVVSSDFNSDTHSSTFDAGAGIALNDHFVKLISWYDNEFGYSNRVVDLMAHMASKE
# UniProt P08684, whole entry, looked up: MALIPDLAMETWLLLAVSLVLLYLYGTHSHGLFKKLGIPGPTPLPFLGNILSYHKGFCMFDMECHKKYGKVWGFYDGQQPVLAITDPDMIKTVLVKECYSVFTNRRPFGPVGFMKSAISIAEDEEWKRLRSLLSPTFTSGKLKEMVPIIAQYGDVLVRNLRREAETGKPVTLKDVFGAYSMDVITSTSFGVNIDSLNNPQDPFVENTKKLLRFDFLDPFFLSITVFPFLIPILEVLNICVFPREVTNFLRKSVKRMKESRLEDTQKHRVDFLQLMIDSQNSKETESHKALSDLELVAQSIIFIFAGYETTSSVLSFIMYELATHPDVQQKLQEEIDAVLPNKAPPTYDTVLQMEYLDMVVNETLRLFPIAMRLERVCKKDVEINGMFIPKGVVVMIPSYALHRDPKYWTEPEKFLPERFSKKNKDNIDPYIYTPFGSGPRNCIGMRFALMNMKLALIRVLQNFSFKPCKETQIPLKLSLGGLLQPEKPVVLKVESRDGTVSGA
# Experiments:
# [1] = biological target: human Phosphatase and Tensin Homolog (PTEN), PTEN (gene 5728) (UniProt P60484); assay: NVS_ENZ_hPTEN: NovaScreen (NVS) Enzymatic Assay for human Phosphatase and Tensin Homolog (PTEN) (AID 2283203)
# In short: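 Cell-free recombinant human PTEN with fluorescent substrate; product separated by electrophoretic mobility shift and read by fluorescence 1 h after dosing. Primary screen in duplicate at 25 uM, actives followed in concentration series versus DMSO.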
# [2] = biological target: Nucleoli Translocation, AR (gene 367) (UniProt P10275); assay: UPITT_HCI_U2OS_AR_TIF2_Nucleoli_Agonist: University of Pittsburgh U2OS Androgen Receptor-Transcriptional Intermediary Factor 2 (AR-TIF2) Agonism High Content Imaging Assay for Nucleoli Translocation (AID 2283998)
# In short: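 Readout is red (AR-RFP) fluorescence localized to nucleoli, measured by high-content imaging and analysed for increase relative to DMSO. Compound series spanned 0.195 to 50 uM final in 0.5% DMSO.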
# [3] = biological target: Ratio of Nucleoli Translocation and Cytoplasm, AR (gene 367) (UniProt P10275); assay: UPITT_HCI_U2OS_AR_TIF2_Nucleoli_Cytoplasm_Ratio_Antagonist: University of Pittsburgh U2OS Androgen Receptor-Transcriptional Intermediary Factor 2 (AR-TIF2) Antagonism High Content Imaging Assay for Ratio of Nucleoli Translocation and Cytoplasm (AID 2283999);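 further: antagonists lower the DHT-driven ratio of nucleolar to cytoplasmic red signal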
# In short: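 Human osteosarcoma U2OS line, AR fused to RFP, coactivator TIF2 fused to GFP. Cpds 20 uM final, 0.2% DMSO (screen); 0.195–50 uM final, 0.5% DMSO (CRC). Endpoint: nucleoli/cytoplasm red signal ratio, DHT as baseline, loss-of-signal antagonist mode.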
# [4] = biological target: mouse Estrogen Receptor alpha (Era), Esr1 (gene 13982) (UniProt P19785); assay: NVS_NR_mERa: NovaScreen (NVS) Nuclear Receptor Binding Assay for mouse Estrogen Receptor alpha (Era) (AID 2283378);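 further: hit means loss of bound radioligand signal relative to DMSO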
# In short: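 Extracted mouse Era incubated with tritiated or iodinated radioligand plus test chemical, 18 h. Bound fraction separated on filters, counted by scintillation. DMSO = negative control/baseline; duplicate single-point at 25 uM, then concentration-response follow-up.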
# [5] = biological target: Bile acid receptor (Homo sapiens) (UniProt Q96RI1); assay: OT_FXR_FXRSRC1_0480: Odyssey Thera (OT) 8-hour HEK293T Protein-Complementation Assay for Farnesoid X receptor/SRC-1 Co-activator (AID 2283383)
# In short: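 Human kidney HEK293T cells carried FXR/SRC-1 fragment-complementation constructs. Compounds were added and incubated 8 h. Reporter reassembly upon receptor–co-activator interaction was then quantified by fluorescence, with curves fitted in the positive direction relative to DMSO.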
# [6] = ACEA_AR_agonist_AUC_viability: ACEA Biosciences xCELLigence Real-Time Cell Analysis on Androgen Receptor Agonism for Viability (AID 2283775);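 on AC50: viability read 80 hours after compound addition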
# In short: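 Real-time impedance tracking of 22Rv1 growth, readings every 5 min for 5 h then hourly; area-under-curve viability endpoint at 80 hours, relative to DMSO. Compounds at eight concentrations, 1:4 steps, top 100 uM, n = 2.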
# [7] = STM_H9_OrnCyssISnorm_ratio: Stemina devTOX quickPredict H9 human embryonic stem cell (hESC)-based Assay for Ornithine (ORN):Cystine (CYSS) Ratio (AID 2283714)
# In short: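 Undifferentiated H9 hESCs exposed 72 h, media and compound replaced every 24 h; final 24-h conditioned media deproteinized and analysed by UPLC-HRMS against C13 spike-ins. Value is the internal-standard-normalized ORN/CYSS ratio versus 0.1% DMSO.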
# [8] = Tanguay_ZF_120hpf_CIRC_legacy: (Legacy) Oregon State University Tanguay Lab 120 Hour Post-fertilization zebrafish Assay for Circulatory Malformation (AID 2283651)
# In short: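 Read-out: presence or absence of circulatory malformation at 120 hpf, scored by brightfield microscopy, fitted in the gain-of-signal direction against DMSO baseline. Wild-type 5D larvae were exposed from 6 hpf after enzymatic chorion removal.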
# [9] = biological target: Estrogen receptor (Homo sapiens) + Estrogen receptor beta (Homo sapiens) (UniProt P03372+Q92731); assay: OT_ER_ERaERb_0480: Odyssey Thera (OT) 8-hour HEK293T Protein-Complementation Assay for Estrogen Receptor-alpha/-beta Heterodimer (AID 2283352)
# In short: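 Compound added to HEK293T cells carrying split-reporter-tagged ER-alpha and ER-beta LBDs, incubated 8 hours, then imaged by laser scanning cytometer. Signal rise in nucleus, or nucleus and cytoplasm, over vehicle was fitted in the positive direction.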
# [10] = biological target: Bile acid receptor (Homo sapiens) (UniProt Q96RI1); assay: OT_FXR_FXRSRC1_1440: Odyssey Thera (OT) 24-hour HEK293T Protein-Complementation Assay for Farnesoid X receptor/SRC-1 Co-activator (AID 2283384)
# In short: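 Compounds are applied to human kidney HEK293T cells expressing bait and prey fused to reporter protein fragments; after 24 h, reconstituted reporter fluorescence is measured. Activity is fitted as signal gain over DMSO.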
# [11] = Tanguay_ZF_120hpf_NC_legacy: (Legacy) Oregon State University Tanguay Lab 120 Hour Post-fertilization zebrafish Assay for Notochord and Tail Malformation (AID 2283656)
# In short: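 Dechorionated Tropical 5D wild-type zebrafish embryos, one per well from 6 hpf, statically exposed to 120 hpf at 28C in 0.64% DMSO final. Notochord distortion scored present/absent by brightfield; dead embryos excluded.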
# [12] = read-out: xenobiotic metabolism (CYP1A2), CYP1A2 (gene 1544); assay: CLD_CYP1A2_6hr: CellzDirect (CLD) Gene Expression Assay for xenobiotic metabolism (CYP1A2) at 6 hours (AID 2283663);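 on AC50: potency is for induction meaning a rise in mRNA above DMSO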
# In short: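 Primary human hepatocytes from two donor preparations, dosed daily with multiple concentrations in 0.2% DMSO and harvested at 6 h. CYP1A2 mRNA induction measured by chemiluminescent qNPA, gain of signal fitted against DMSO; cytotoxicity flagged morphologically.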
# [13] = read-out: xenobiotic metabolism (CYP2C9), CYP2C9 (gene 1559); assay: CLD_CYP2C9_6hr: CellzDirect (CLD) Gene Expression Assay for xenobiotic metabolism (CYP2C9) at 6 hours (AID 2283664)
# In short: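 Primary human hepatocytes dosed daily with test chemicals at multiple concentrations; harvested at 6 h. CYP2C9 mRNA induction measured by qNPA chemiluminescence. Gain of signal fitted against 0.2% DMSO vehicle; cytotoxicity annotated from phase-contrast morphology.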
# [14] = read-out: Glyceraldehyde-3-phosphate dehydrogenase (Homo sapiens) (UniProt P04406); assay: CLD_GAPDH_6hr: CellzDirect (CLD) Gene Expression Assay for Baseline Control (Glyceraldehyde 3-phosphate dehydrogenase) at 6 hours (AID 2283681);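 on outcome: active means increased signal relative to DMSO vehicle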
# In short: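 Primary human hepatocytes from two donor preparations, dosed at multiple concentrations with 0.2% DMSO vehicle; GAPDH mRNA measured 6 h after dosing by chemiluminescent quantitative nuclease protection assay (qNPA) on denatured lysates. Serves as background control; cytotoxicity annotated by morphology.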
# [15] = read-out: organic anion transporter (SLCO1B1), SLCO1B1 (gene 10599); assay: CLD_SLCO1B1_24hr: CellzDirect (CLD) Gene Expression Assay for organic anion transporter (SLCO1B1) at 24 hours (AID 2283690)
# In short: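 Primary human hepatocytes (two donor preparations) dosed daily for two days with chemicals at multiple concentrations, 0.2% DMSO vehicle. SLCO1B1 mRNA at 24 h measured by qNPA chemiluminescence; induction fitted relative to DMSO.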
# [16] = read-out: Cytochrome P450 3A4 (Homo sapiens) (UniProt P08684); assay: CLD_CYP3A4_48hr: CellzDirect (CLD) Gene Expression Assay for xenobiotic metabolism (CYP3A4) at 48 hours (AID 2283698)
# In short: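 Primary human hepatocytes from two donor preparations dosed daily for two days with multiple chemical concentrations, 0.2% DMSO vehicle. CYP3A4 mRNA at 48 h by quantitative nuclease protection assay, chemiluminescence, positive fit versus DMSO; cytotoxicity flagged morphologically.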
# [17] = read-out: ABC Transporter (ABCB1), ABCB1 (gene 5243); assay: CLD_ABCB1_6hr: CellzDirect (CLD) Gene Expression Assay for ABC Transporter (ABCB1) at 6 hours (AID 2283659);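 on outcome: hits raise ABCB1 transcript above the DMSO vehicle baseline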
# In short: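 Primary human hepatocytes (two donor preparations) dosed daily for two days with chemicals at multiple concentrations, 0.2% DMSO vehicle; harvested 6 h post-dose. ABCB1 mRNA induction quantified by qNPA chemiluminescence; gain-of-signal fitted versus DMSO.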
# [18] = read-out: sulfotransferase (SULT2A), SULT2A1 (gene 6822); assay: CLD_SULT2A_48hr: CellzDirect (CLD) Gene Expression Assay for sulfotransferase (SULT2A) at 48 hours (AID 2283710);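 further: hits raise SULT2A1 transcript above the 0.2% DMSO vehicle baseline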
# In short: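 Primary human hepatocytes (two donor preparations) dosed daily for two days with chemicals at multiple concentrations, vehicle 0.2% DMSO; SULT2A1 mRNA induction at 48 h by quantitative nuclease protection assay, chemiluminescent read-out, fitted for gain of signal versus DMSO.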
# [19] = read-out: sulfotransferase (SULT2A), SULT2A1 (gene 6822); assay: CLD_SULT2A_6hr: CellzDirect (CLD) Gene Expression Assay for sulfotransferase (SULT2A) at 6 hours (AID 2283669);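 further: hits raise transcript level above the DMSO vehicle baseline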
# In short: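 Primary human hepatocytes from two donor preparations were dosed daily with chemicals or 0.2% DMSO and harvested at 6 h. Transcript induction read by qNPA chemiluminescence, fitted for gain of signal relative to DMSO; morphology-based cytotoxicity annotated.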
# [20] = read-out: HMG-CoA synthase (HMGCS2), HMGCS2 (gene 3158); assay: CLD_HMGCS2_6hr: CellzDirect (CLD) Gene Expression Assay for HMG-CoA synthase (HMGCS2) at 6 hours (AID 2283682);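 further: actives raise HMGCS2 transcript above the 0.2% DMSO vehicle baseline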
# In short: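 Primary human hepatocytes dosed daily with fresh chemical, 0.2% DMSO vehicle; HMGCS2 mRNA measured at 6 h by qNPA chemiluminescence. Gain of signal fitted against DMSO; cytotoxicity flagged from phase-contrast morphology.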
compound,measurement,setting,value
BrCC(Br)c1ccccc1 (stereo unspecified),AC50,[1],inconclusive: 0.0562 µM
Clc1ccc(Oc2ccccc2)cc1,outcome,[1],inactive
same,AC50,[2],inconclusive: 50 µM
same,AC50,[3],inconclusive: 50 µM
O=C(O)C(F)(F)C(F)(F)C(F)(F)C(F)(F)C(F)(F)C(F)(F)C(F)(F)C(F)(F)F,outcome,[1],inactive
same,outcome,[4],inactive
same,AC50,[5],inconclusive: 50 µM
same,AC50,[6],active: 74.2 µM
C=CC(N)=O,AC50,[7],inconclusive: 3.57 µM
O=C(O)C(Cl)Cl,outcome,[8],inactive
same,outcome,[7],inactive
CCOP(=S)(OCC)SCn1c(=O)oc2cc(Cl)ccc21,AC50,[9],inconclusive: 50 µM
same,AC50,[10],active: 12 µM
same,AC50,[11],inconclusive: 15.4 µM
same,outcome,[12],inactive
same,AC50,[13],inconclusive: 20 µM
same,AC50,[14],inconclusive: 0.00646 µM
same,AC50,[15],inconclusive: 20 µM
same,AC50,[16],active: 4.1 µM
N#CN,AC50,[11],inconclusive: 48.4 µM
same,outcome,[17],inactive
same,outcome,[15],inactive
same,AC50,[16],inconclusive: 0.0145 µM
same,AC50,[18],inconclusive: 20 µM
CCOP(=O)(OCC)Oc1cc(C)nc(C(C)C)n1,outcome,[14],inactive
same,AC50,[18],active: 4.2 µM
same,AC50,[6],inconclusive: 90.6 µM
CCS(=O)(=O)c1cccnc1S(=O)(=O)NC(=O)Nc1nc(OC)cc(OC)n1,outcome,[1],inactive
same,AC50,[13],inconclusive: 0.0453 µM
same,AC50,[19],inconclusive: 20 µM
CCCCOCN(C(=O)CCl)c1c(CC)cccc1CC,AC50,[9],inconclusive: 20.5 µM
same,AC50,[5],active: 50 µM
same,AC50,[8],inconclusive: 39.3 µM
same,AC50,[17],inconclusive: 20 µM
same,AC50,[19],active: 4.32 µM
same,AC50,[20],inconclusive: 0.000144 µM
same,AC50,[3],active: 11 µM
Cc1nn(-c2cc(NS(C)(=O)=O)c(Cl)cc2Cl)c(=O)n1C(F)F,AC50,[11],inconclusive: 8.55 µM
same,outcome,[19],inactive
same,outcome,[14],inactive
same,AC50,[20],inconclusive: 0.42 µM
same,outcome,[18],inactive
same,AC50,[7],inconclusive: 50 µM
same,outcome,[6],inactive
same,outcome,[2],inactive
CS/C(C)=N/OC(=O)N(C)SN(C)C(=O)O/N=C(\C)SC,AC50,[9],inconclusive: 50 µM
same,AC50,[5],inconclusive: 50 µM
same,AC50,[8],inconclusive: 0.00137 µM
same,AC50,[11],active: 25 µM
same,AC50,[17],inconclusive: 20 µM
same,AC50,[12],inconclusive: 20 µM
same,AC50,[13],inconclusive: 20 µM
same,AC50,[19],inconclusive: 0.0004 µM
same,outcome,[14],inactive
same,AC50,[20],inconclusive: 0.0004 µM
same,AC50,[16],inconclusive: 0.0039 µM
same,AC50,[3],active: 13.8 µM
O=C(O)COc1cc(Cl)c(Cl)cc1Cl,AC50,[10],inconclusive: 50 µM
same,AC50,[6],inconclusive: 0.251 µM
same,AC50,[2],inconclusive: 50 µM
same,AC50,[3],inconclusive: 50 µM

# Fetched one by one from the entries so far:
compound,measurement,setting,value
Clc1ccc(Oc2ccccc2)cc1,AC50,[2],inconclusive: 50 µM
CCOP(=O)(OCC)Oc1cc(C)nc(C(C)C)n1,AC50,[6],inconclusive: 90.6 µM
CCOP(=S)(OCC)SCn1c(=O)oc2cc(Cl)ccc21,AC50,[11],inconclusive: 15.4 µM
Cc1nn(-c2cc(NS(C)(=O)=O)c(Cl)cc2Cl)c(=O)n1C(F)F,outcome,[14],inactive
N#CN,outcome,[15],inactive
CCOP(=S)(OCC)SCn1c(=O)oc2cc(Cl)ccc21,AC50,[16],active: 4.1 µM

# Source: PubChem BioAssay (EPA / NIEHS)
